Where a name gives a salt, the structure may show the parent alone. This is one part of the list. Single values are uncertain, as repeats are few or missing.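 The three strains are clinical Candida auris isolates from the CDC resistance isolate bank, from clades III, IV and I, grown in RPMI-1640 at 35°C. Growth is background-corrected OD600 relative to vehicle-only wells on the same plate; a hit meant over 50% inhibition in at least two strains plus a plate-corrected B-score above 0.1.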
tested on: C. auris AR-384; test: growth relative to vehicle control (OD600 ratio) (fraction); higher = less inhibition; settings: 10 µM; 24 h

**Q.** Which growth does the source give for `Cc1nc(Nc2ncc(C(=O)Nc3c(C)cccc3Cl)s2)cc(N2CCN(CCO)CC2)n1` [Dasatinib Monohydrate] here?
**A.** 1.37

**Q.** How did the growth turn out when `CCN1CCN(Cc2ccc(Nc3ncc(F)c(-c4cc(F)c5nc(C)n(C(C)C)c5c4)n3)nc2)CC1` was run?
**A.** 0.7

**Q.** For `Cc1c(Cl)cccc1Nc1ccccc1C(=O)O` [Tolfenamic Acid], which growth is on record?
**A.** 0.8

**Q.** With `C[N+]1(C)CCC(OC(=O)C(O)(c2ccccc2)C2CCCC2)C1` (stereo not given) [Glycopyrrolate] as the molecule, how does the growth read?
**A.** 0.84

**Q.** For `Cc1cc2c(s1)Nc1ccccc1N=C2N1CCN(C)CC1` [Olanzapine], which growth is on record?
**A.** 1.05

**Q.** With `CCC(=O)O[C@]1(C(=O)CCl)[C@@H](C)C[C@H]2[C@@H]3C[C@H](F)C4=CC(=O)C=C[C@]4(C)[C@@]3(F)[C@@H](O)C[C@@]21C` [Halobetasol Propionate] as the molecule, how does the growth read?
**A.** 1.22

**Q.** For `CN(C)c1nc(N(C)C)nc(N(C)C)n1` [Altretamine], which growth is on record?
**A.** 1.02

**Q.** With `Cc1cn([C@@H]2C[C@@H](O)[C@H](CO)O2)c(=O)[nH]c1=O` [Telbivudine] as the molecule, how does the growth read?
**A.** 0.65

**Q.** With `O=C(CCNNC(=O)c1ccncc1)NCc1ccccc1` [Nialamide] as the molecule, how does the growth read?
**A.** 1.22

**Q.** Which growth does the source give for `CCCN[C@H]1CCc2nc(N)sc2C1` [Pramipexole] here?
**A.** 1.23

**Q.** For `C[N+]1(C)[C@@H]2C[C@@H](OC(=O)C(O)(c3cccs3)c3cccs3)C[C@H]1[C@@H]1O[C@@H]12` [Tiotropium Bromide hydrate], which growth is on record?
**A.** 0.79

**Q.** `Cc1cccc(C)c1OCC(=O)N[C@@H](Cc1ccccc1)[C@@H](O)C[C@H](Cc1ccccc1)NC(=O)[C@H](C(C)C)N1CCCNC1=O` [Lopinavir] was tested. Which growth did it give?
**A.** 1.35

**Q.** With `CC(CCc1ccccc1)NCC(O)c1ccc(O)c(C(N)=O)c1` (stereo not given) [Labetalol HCl] as the molecule, how does the growth read?
**A.** 0.73

**Q.** How did the growth turn out when `Cc1cccc(Nc2ccccc2C(=O)O)c1C` [Mefenamic Acid] was run?
**A.** 0.82

**Q.** With `COc1cc(C(=O)NC2CCCNC2)cc(OC)c1OC` (stereo not given) [Troxipide] as the molecule, how does the growth read?
**A.** 0.95

**Q.** With `CCCCc1nc(Cl)c(CO)n1Cc1ccc(-c2ccccc2-c2nnn[nH]2)cc1` [Losartan Potassium (DuP 753)] as the molecule, how does the growth read?
**A.** 0.84

**Q.** Which growth does the source give for `CC[C@]1(O)C[C@H]2CN(CCc3c([nH]c4ccccc34)[C@@](C(=O)OC)(c3cc4c(cc3OC)N(C=O)[C@H]3[C@@](O)(C(=O)OC)[C@H](OC(C)=O)[C@]5(CC)C=CCN6CC[C@]43[C@@H]65)C2)C1` [Vincristine sulfate] here?
**A.** 0.54

**Q.** For `CC#C[C@]1(O)CC[C@H]2[C@@H]3CCC4=CC(=O)CCC4=C3[C@@H](c3ccc(N(C)C)cc3)C[C@@]21C` [Mifepristone], which growth is on record?
**A.** 0.99

**Q.** With `Cc1nc(C)c(Cl)c(O)c1Cl` [Clopidol] as the molecule, how does the growth read?
**A.** 1.02

**Q.** Which growth does the source give for `O=C1OCCN1/N=C/c1ccc([N+](=O)[O-])o1` [Furazolidone] here?
**A.** 0.78

**Q.** `CN(C)[C@@H]1C(O)=C(C(N)=O)C(=O)[C@@]2(O)C(O)=C3C(=O)c4c(O)cccc4[C@@](C)(O)[C@H]3[C@H](O)[C@@H]12` [Oxytetracycline (Terramycin)] was tested. Which growth did it give?
**A.** 0.88

**Q.** With `C#C[C@]1(OC(C)=O)CC[C@H]2[C@@H]3CCC4=C[C@@H](OC(C)=O)CC[C@@H]4[C@H]3CC[C@@]21C` [Ethynodiol diacetate] as the molecule, how does the growth read?
**A.** 0.65

**Q.** Which growth does the source give for `OCc1cc(C(O)CNCCCCCCOCCCCc2ccccc2)ccc1O` (stereo not given) [Salmeterol Xinafoate] here?
**A.** 1.08

**Q.** `C[C@@H](O)[C@H]1C(=O)N2C(C(=O)O)=C(S[C@@H]3CN[C@H](C(=O)N(C)C)C3)[C@H](C)[C@H]12` [Meropenem] was tested. Which growth did it give?
**A.** 1.3

**Q.** For `CC(O)(P(=O)(O)O)P(=O)(O)O` [Etidronate], which growth is on record?
**A.** 0.7

**Q.** With `Cn1c([N+](=O)[O-])cnc1COC(N)=O` [Ronidazole] as the molecule, how does the growth read?
**A.** 0.98

**Q.** For `Brc1c(NC2=NCCN2)ccc2nccnc12` [Brimonidine Tartrate], which growth is on record?
**A.** 0.76

**Q.** Which growth does the source give for `COC(c1ccccc1)(c1ccccc1)[C@H](Oc1nc(C)cc(C)n1)C(=O)O` [Ambrisentan] here?
**A.** 1.01

**Q.** How did the growth turn out when `CC(=O)N[C@@H](CCC(N)=O)C(=O)O` [Aceglutamide] was run?
**A.** 0.89

**Q.** How did the growth turn out when `CC[C@@H]([C@H](C)O)n1ncn(-c2ccc(N3CCN(c4ccc(OC[C@@H]5CO[C@@](Cn6cncn6)(c6ccc(F)cc6F)C5)cc4)CC3)cc2)c1=O` [Posaconazole] was run?
**A.** 0.35

**Q.** For `Cc1nc(=O)c2cc(CN(C)c3ccc(C(=O)N[C@@H](CCC(=O)O)C(=O)O)s3)ccc2[nH]1` [Raltitrexed], which growth is on record?
**A.** 1.28

**Q.** For `Cc1cn[nH]c1` [Fomepizole], which growth is on record?
**A.** 1.19

**Q.** Which growth does the source give for `COc1ccc2c(c1)c(CC(=O)OCC(=O)O)c(C)n2C(=O)c1ccc(Cl)cc1` [Acemetacin] here?
**A.** 1.12

**Q.** Which growth does the source give for `O=C(O)c1cc(=O)c2c(OCC(O)COc3cccc4oc(C(=O)O)cc(=O)c34)cccc2o1` [Disodium Cromoglycate] here?
**A.** 0.93

**Q.** For `CC1CCC(C(C)C)C(O)C1` (single isomer, unassigned; (-)) [(-)-Menthol], which growth is on record?
**A.** 1.09

**Q.** Which growth does the source give for `C[C@H](Cc1cc2c(c(C(N)=O)c1)N(CCCO)CC2)NCCOc1ccccc1OCC(F)(F)F` [Silodosin] here?
**A.** 0.99

**Q.** How did the growth turn out when `CC(C(=O)O)c1ccc(-c2ccccc2)c(F)c1` (stereo not given) [Flurbiprofen] was run?
**A.** 0.67

**Q.** For `CCOC(=O)C1=C(C)NC(C)=C(C(=O)OC)C1c1cccc(Cl)c1Cl` (stereo not given) [Felodipine], which growth is on record?
**A.** 0.98

**Q.** With `CCC(NC(C)C)C(O)c1ccc(O)c(O)c1` (stereo not given) [Isoetharine Mesylate] as the molecule, how does the growth read?
**A.** 0.81

**Q.** For `CCOC(=O)C1=C(C)NC(C)=C(C(=O)OCC)C1c1ccccc1/C=C/C(=O)OC(C)(C)C` [Lacidipine], which growth is on record?
**A.** 0.75

Reference: the supplement of paper PMC10470496
